# Test results published in patent publication US20250066483A1.
# No constants are given. Whether binding was seen depends on the method and setting. Some binding calls cover weakened binding; strength is not graded here.
# T1: canine PD-L1-Ig (canine; rabbit) (UniProt E2RKZ5)
# T1 sequence (chain, by the resolver, biotinylated in the ELISA): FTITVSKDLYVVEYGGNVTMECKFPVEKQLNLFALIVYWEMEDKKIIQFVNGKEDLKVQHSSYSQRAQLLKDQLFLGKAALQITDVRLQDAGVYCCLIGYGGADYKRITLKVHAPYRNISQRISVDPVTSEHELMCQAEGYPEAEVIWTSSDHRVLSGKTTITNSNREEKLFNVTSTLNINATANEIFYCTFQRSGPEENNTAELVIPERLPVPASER
# Columns and labels:
# [1] = molecular target: T1, canine PD-L1-Ig (canine; rabbit); assay: blocking ELISA: canine PD-L1-Ig pre-incubated with the antibody, then added to immobilised canine CD80-Ig (blocked ligand: canine CD80-Ig) [panel CD80/PD-L1 Binding Inhibition]
# [2] = molecular target: T1, canine PD-L1-Ig (canine; rabbit); assay: blocking ELISA: biotinylated canine PD-L1-Ig pre-incubated with the antibody, then added to immobilised canine PD-1-Ig (blocked ligand: canine PD-1-Ig)
# [3] = molecular target: T1, canine PD-L1-Ig (canine; rabbit); assay: blocking ELISA: canine PD-L1-Ig pre-incubated with the antibody, then added to immobilised canine PD-1-Ig (blocked ligand: canine PD-1-Ig) [panel PD-1/PD-L1 Binding Inhibition]
binding [1],binding [2],binding [3],Binder
binds,binds,binds,"rat anti-bovine PD-L1 monoclonal antibody 4G12 (antibody, V domains shown) VH: QVQLQQSGAELVKPGSSVKISCKASGYTFTSNFMHWVKQQPGNGLEWIGWIYPEYGNTKYNQKFDGKATLTADKSSSTAYMQLSSLTSEDSAVYFCASEEAVISLVYWGQGTLVTVSS VL: DIAITQSPSSVAVSVGETVTLSCKSSQSLLYSENQKDYLGWYQQKPGQTPKPLIYWATNRHTGVPDRFTGSGSGTDFTLIISSVQAEDLADYYCGQYLVYPFTFGPGTKLELK"
binds,binds,binds,"rat-canine chimeric anti-PD-L1 antibody c4G12 (antibody, V domains shown) VH: QVQLQQSGAELVKPGSSVKISCKASGYTFTSNFMHWVKQQPGNGLEWIGWIYPEYGNTKYNQKFDGKATLTADKSSSTAYMQLSSLTSEDSAVYFCASEEAVISLVYWGQGTLVTVSS VL: DIAITQSPSSVAVSVGETVTLSCKSSQSLLYSENQKDYLGWYQQKPGQTPKPLIYWATNRHTGVPDRFTGSGSGTDFTLIISSVQAEDLADYYCGQYLVYPFTFGPGTKLELKQ"
